Experimental data published in publication PMC7887271, “Fast acting allosteric phosphofructokinase inhibitors block trypanosome glycolysis and cure acute African trypanosomiasis in mice” (Nature Communications, 2021).

Test system: T. b. gambiense
Experiment: EC50 against in vitro cultured T. b. gambiense (STMI)
Assay type: cell-based

With CN(C)CCn1ccc2c(ccn2Cc2ccc(Cl)c(Cl)c2)c1=O [CTCB-405, 1-[(3,4-Dichlorophenyl)methyl]-5-[2-(dimethylamino)ethyl] pyrrolo[3,2-c]pyridin-4-one] the “improvement in killing for T. b. gambiense over T. b. brucei” value was 2 fold.
CN(C)CCn1ccc2c(ccn2Cc2ccc(Cl)c(Br)c2)c1=O [CTCB-470, 1-[(3-Bromo-4-chlorophenyl)methyl]-5-[2-(dimethylamino)ethyl] pyrrolo[3,2-c]pyridin-4-one] was tested, and the “improvement in killing for T. b. gambiense over T. b. brucei” value was 2 fold.
